Some results were stated once for a whole list of compounds, not compound by compound.
What was measured:
Myzus persicae = assay: Test Example 2: insecticidal test against Myzus persicae (root immersion and leaf spray of young white radish plant); format: in vivo; settings: 100 ppm root immersion and 1000 ppm leaf spray, 1-stage larvae, 25° C., after 5 days
Laodelphax striatellus = assay: Test Example 1: insecticidal test against Laodelphax striatellus (root immersion and leaf spray of young rice plant); format: in vivo; settings: 100 ppm root immersion and 1000 ppm leaf spray, 25° C., after 6 days

| Structure (SMILES) | insect death ratio (Myzus persicae) [%] | insect death ratio (Laodelphax striatellus) [%] |
| --- | --- | --- |
| CCCCC[S+]([O-])c1cc2n(Cc3ccc(Cl)nc3)c(C)cc(=O)n2n1 (centres unmarked) [compound 336] | ≥ 70 | ≥ 70 |
| CSc1cc2n(Cc3ccc(Cl)nc3)c(C)cc(=S)n2n1 [compound 239] | ≥ 70 | ≥ 70 |
| CCS(=O)(=O)c1cc2n(Cc3ccc(Cl)nc3)c(C)cc(=O)n2n1 [compound 245] | ≥ 70 | ≥ 70 |
| Cc1cc(=O)n2nc(C(F)(F)C(F)(F)F)nc2n1Cc1ccc(Cl)nc1 [compound 56] | ≥ 70 | ≥ 70 |
| Cc1cc(=O)n2nc(OS(C)(=O)=O)cc2n1Cc1ccc(Cl)nc1 [compound 328] | ≥ 70 | ≥ 70 |
| CSc1nc2n(Cc3cnc(Br)c(F)c3)c(C)cc(=O)n2n1 [compound 312] | ≥ 70 | ≥ 70 |
| Cc1cc(=O)n2nc(/S(C)=N/C#N)cc2n1Cc1ccc(Cl)nc1 (centres unmarked) [compound 176] | ≥ 70 | ≥ 70 |
| CSc1nc2n(Cc3ccc(Cl)nc3)c(C)c/c(=N\C(C)C)n2n1 [compound 140] | ≥ 70 | ≥ 70 |
| C[S+]([O-])c1nc2n(Cc3ccc(Cl)nc3)ccc(=O)n2n1 (centres unmarked) [compound 203] | ≥ 70 | ≥ 70 |
| CCc1c(C)n(Cc2ccc(Cl)nc2)c2nc(SC)nn2c1=O [compound 25] | ≥ 70 | ≥ 70 |
| CSc1cc2n(Cc3cnc(Cl)c(C)c3)c(C)cc(=O)n2n1 [compound 308] | ≥ 70 | ≥ 70 |
| Cc1cc(=O)n2nc(S(C)(=O)=NC#N)nc2n1Cc1ccc(Cl)nc1 (centres unmarked) [compound 76] | ≥ 70 | ≥ 70 |
| Cc1cc(=O)n2nc(Oc3ccccc3F)nc2n1Cc1ccc(Cl)nc1 [compound 77] | ≥ 70 | ≥ 70 |
| CSc1cc2n(Cc3ccc(F)nc3)c(C)cc(=O)n2n1 [compound 292] | ≥ 70 | ≥ 70 |
| Cc1cc(=O)n2nc(OCCO)nc2n1Cc1ccc(Cl)nc1 [compound 108] | ≥ 70 | ≥ 70 |
| CCOc1cc2n(Cc3cnc(Cl)c(F)c3)c(C)cc(=O)n2n1 [compound 321] | ≥ 70 | ≥ 70 |
| CSc1cc2n(Cc3cnc(Cl)cc3F)c(C)cc(=O)n2n1 [compound 332] | ≥ 70 | ≥ 70 |
| CSc1cc2n(Cc3ccc(Cl)nc3)c(C)cc(=O)n2n1 [compound 154, 4-((6-chloropyridin-3-yl)methyl)-5-methyl-2-(methylthio)-pyrazolo[1,5-a]pyrimidin-7(4H)-one] | ≥ 70 | ≥ 70 |
| Cc1cc(=O)n2nc(S(=O)(=O)CC(F)(F)F)nc2n1Cc1ccc(Cl)nc1 [compound 190] | ≥ 70 | ≥ 70 |
| Cc1cc2n(Cc3ccc(Cl)nc3)c(C)cc(=O)n2n1 [compound 156] | ≥ 70 | ≥ 70 |
| CCOc1nc2n(Cc3ccc(Cl)nc3)c(C)cc(=O)n2n1 [compound 90] | ≥ 70 | ≥ 70 |
| CSc1cc2n(Cc3cncnc3)c(C)cc(=O)n2n1 [compound 281] | ≥ 70 | ≥ 70 |
| CC[S+]([O-])c1cc2n(Cc3ccc(Br)nc3)c(C)cc(=O)n2n1 (centres unmarked) [compound 250] | ≥ 70 | ≥ 70 |
| CC[S+]([O-])c1cc2n(Cc3cnc(Cl)cc3Cl)c(C)cc(=O)n2n1 (centres unmarked) [compound 251] | ≥ 70 | ≥ 70 |
| CCOc1cc2n(Cc3ccc(Cl)nc3)c(C)cc(=O)n2n1 [compound 320] | ≥ 70 | ≥ 70 |

Source: patent publication US9963451B2, “Fused ring pyrimidine compound and pest control agent containing the same” (Mitsui Chemicals Agro, Inc., priority 2013, dated 2018)
